Structures can show the parent of a compound that is named as a salt. The list shows a part of the results. The calls rarely recur for the same compound in another form.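 Kinases, fused to nanoluciferase, were expressed in K562 cells; luminescence was measured every 4 h from 2 to 18 h as percent of control (DMSO = 100%, positive control = 0%). A time point is decreased if signal falls significantly (2 sigma). Hits were called by the authors by a rule that is not shown; the count of time points alone does not decide it.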
Legend:
Assay in all cases: kinase-Nluc reporter destabilization hit call (1 = scored as downregulated) (binary); higher = compound decreases kinase abundance
Settings in all cases: K562; 2-18 h
IRAK3 = IRAK3 (UniProt Q9Y616)
JAK1 = JAK1 (UniProt P23458)
LCK = LCK (UniProt P06239)
LIMK1 = LIMK1 (UniProt P53667)
LIMK2 = LIMK2 (UniProt P53671)
LMTK2 = LMTK2 (UniProt Q8IWU2)
LYN = LYN (UniProt P07948)
MAP2K1 = MAP2K1 (UniProt Q02750)
MAP2K2 = MAP2K2 (UniProt P36507)
MAP4K2 = MAP4K2 (UniProt Q12851)
MAPK1 = MAPK1 (UniProt P28482)
MAPK4 = MAPK4 (UniProt P31152)
MAPKAPK2 = MAPKAPK2 (UniProt P49137)
MKNK1 = MKNK1 (UniProt Q9BUB5)
NTRK2 = NTRK2 (UniProt Q16620)
NTRK3 = NTRK3 (UniProt Q16288)
PAK4 = PAK4 (UniProt O96013)
PBK = PBK (UniProt Q96KB5)
PDGFRB = PDGFRB (UniProt P09619)
PDK1 = PDK1 (UniProt Q15118)

The chains behind the UniProt entries cited, without tags or fusion partners. Where a name states a change or a piece, a line headed by the entry shows the natural chain unless it says otherwise.
UniProt Q9Y616: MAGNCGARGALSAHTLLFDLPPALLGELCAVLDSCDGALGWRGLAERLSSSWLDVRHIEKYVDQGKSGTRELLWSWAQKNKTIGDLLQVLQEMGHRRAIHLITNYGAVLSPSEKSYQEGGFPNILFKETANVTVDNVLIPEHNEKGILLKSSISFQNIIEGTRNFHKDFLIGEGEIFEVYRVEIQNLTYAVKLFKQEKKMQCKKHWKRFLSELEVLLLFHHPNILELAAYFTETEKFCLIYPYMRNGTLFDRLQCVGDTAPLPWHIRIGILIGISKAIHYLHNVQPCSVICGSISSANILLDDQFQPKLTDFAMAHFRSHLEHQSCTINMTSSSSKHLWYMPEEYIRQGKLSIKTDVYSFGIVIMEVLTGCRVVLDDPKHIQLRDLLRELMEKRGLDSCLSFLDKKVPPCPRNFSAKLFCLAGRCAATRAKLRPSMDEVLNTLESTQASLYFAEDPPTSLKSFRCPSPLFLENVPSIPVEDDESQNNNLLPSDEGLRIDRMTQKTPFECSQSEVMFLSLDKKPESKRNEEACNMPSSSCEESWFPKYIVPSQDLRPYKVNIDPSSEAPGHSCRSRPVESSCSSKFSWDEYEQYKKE
UniProt P23458: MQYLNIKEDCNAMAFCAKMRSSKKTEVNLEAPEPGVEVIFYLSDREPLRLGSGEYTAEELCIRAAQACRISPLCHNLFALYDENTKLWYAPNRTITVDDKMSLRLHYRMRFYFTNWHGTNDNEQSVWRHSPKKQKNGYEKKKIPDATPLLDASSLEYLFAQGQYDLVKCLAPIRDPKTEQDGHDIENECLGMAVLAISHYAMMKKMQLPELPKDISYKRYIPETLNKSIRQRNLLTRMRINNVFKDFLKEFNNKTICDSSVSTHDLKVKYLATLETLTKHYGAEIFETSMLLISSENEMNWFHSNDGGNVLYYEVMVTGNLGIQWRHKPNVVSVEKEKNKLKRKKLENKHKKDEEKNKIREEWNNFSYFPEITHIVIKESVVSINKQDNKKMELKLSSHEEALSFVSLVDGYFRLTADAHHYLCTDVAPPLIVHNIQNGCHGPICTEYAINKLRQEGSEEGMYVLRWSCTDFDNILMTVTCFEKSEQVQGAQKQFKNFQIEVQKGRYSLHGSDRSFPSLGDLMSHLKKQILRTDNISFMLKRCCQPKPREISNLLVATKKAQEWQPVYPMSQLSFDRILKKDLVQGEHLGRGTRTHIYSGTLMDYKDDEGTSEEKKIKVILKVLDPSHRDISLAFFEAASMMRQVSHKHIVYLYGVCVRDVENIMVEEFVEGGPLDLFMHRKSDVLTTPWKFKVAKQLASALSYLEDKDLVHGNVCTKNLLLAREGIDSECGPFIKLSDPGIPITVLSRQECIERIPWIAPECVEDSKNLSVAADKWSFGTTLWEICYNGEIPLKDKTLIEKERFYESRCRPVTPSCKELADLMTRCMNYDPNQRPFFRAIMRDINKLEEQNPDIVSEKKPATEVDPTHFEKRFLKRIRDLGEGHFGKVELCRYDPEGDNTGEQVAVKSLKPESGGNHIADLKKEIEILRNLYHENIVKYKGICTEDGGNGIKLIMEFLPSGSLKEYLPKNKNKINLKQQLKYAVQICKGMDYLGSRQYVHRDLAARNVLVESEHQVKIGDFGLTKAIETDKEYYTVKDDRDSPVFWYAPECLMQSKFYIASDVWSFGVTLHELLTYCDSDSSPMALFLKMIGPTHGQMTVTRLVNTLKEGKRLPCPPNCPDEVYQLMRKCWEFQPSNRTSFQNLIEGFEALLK
UniProt P06239: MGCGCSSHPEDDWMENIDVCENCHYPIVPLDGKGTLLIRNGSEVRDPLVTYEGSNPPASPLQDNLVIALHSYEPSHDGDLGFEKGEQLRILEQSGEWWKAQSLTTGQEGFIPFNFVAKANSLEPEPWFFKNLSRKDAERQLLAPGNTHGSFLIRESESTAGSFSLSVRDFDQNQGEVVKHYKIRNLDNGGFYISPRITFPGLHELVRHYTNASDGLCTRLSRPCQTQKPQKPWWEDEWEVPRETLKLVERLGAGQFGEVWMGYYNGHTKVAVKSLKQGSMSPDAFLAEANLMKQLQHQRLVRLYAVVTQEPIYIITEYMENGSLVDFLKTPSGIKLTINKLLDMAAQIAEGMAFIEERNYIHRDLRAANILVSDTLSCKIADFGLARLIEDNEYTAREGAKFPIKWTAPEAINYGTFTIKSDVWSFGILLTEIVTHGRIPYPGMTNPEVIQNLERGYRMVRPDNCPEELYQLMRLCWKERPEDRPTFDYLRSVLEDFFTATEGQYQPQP
UniProt P53667: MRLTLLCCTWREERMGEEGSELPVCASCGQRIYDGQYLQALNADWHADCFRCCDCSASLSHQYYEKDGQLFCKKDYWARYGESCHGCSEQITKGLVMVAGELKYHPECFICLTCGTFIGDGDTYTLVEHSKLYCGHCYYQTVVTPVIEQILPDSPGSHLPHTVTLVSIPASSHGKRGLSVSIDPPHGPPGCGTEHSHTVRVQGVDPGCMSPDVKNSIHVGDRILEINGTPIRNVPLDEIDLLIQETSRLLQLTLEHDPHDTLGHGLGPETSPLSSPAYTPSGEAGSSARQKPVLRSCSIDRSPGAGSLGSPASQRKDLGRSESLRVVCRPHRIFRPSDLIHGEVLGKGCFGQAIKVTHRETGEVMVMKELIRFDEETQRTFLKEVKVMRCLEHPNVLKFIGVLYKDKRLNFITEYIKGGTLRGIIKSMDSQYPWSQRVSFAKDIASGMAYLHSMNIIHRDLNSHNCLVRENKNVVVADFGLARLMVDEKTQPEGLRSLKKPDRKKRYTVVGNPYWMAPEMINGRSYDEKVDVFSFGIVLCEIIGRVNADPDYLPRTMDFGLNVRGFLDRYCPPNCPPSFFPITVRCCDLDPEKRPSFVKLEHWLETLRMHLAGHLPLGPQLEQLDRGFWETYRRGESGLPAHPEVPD
UniProt P07948: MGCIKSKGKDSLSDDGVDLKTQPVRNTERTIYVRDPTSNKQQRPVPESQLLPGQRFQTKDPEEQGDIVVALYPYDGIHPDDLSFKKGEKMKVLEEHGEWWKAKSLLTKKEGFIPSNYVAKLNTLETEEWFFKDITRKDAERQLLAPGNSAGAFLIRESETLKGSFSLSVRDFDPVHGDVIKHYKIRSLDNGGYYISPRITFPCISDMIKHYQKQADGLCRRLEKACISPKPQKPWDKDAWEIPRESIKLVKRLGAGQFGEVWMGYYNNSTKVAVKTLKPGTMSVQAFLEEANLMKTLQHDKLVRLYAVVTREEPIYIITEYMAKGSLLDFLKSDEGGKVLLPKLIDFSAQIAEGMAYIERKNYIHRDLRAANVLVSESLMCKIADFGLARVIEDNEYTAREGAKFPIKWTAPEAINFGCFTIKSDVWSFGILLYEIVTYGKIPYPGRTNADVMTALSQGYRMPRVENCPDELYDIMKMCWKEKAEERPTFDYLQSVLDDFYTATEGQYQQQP
UniProt P28482, whole entry: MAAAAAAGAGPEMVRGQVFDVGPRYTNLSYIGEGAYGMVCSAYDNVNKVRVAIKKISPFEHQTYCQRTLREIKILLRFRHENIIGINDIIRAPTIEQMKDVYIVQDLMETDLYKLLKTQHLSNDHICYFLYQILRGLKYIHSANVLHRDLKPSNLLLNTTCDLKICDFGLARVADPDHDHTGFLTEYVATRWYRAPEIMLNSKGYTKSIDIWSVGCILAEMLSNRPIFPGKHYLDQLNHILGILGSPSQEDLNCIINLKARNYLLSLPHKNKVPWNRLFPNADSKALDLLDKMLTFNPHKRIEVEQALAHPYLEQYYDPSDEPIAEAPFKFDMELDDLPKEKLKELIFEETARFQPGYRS
UniProt P49137, whole entry, looked up: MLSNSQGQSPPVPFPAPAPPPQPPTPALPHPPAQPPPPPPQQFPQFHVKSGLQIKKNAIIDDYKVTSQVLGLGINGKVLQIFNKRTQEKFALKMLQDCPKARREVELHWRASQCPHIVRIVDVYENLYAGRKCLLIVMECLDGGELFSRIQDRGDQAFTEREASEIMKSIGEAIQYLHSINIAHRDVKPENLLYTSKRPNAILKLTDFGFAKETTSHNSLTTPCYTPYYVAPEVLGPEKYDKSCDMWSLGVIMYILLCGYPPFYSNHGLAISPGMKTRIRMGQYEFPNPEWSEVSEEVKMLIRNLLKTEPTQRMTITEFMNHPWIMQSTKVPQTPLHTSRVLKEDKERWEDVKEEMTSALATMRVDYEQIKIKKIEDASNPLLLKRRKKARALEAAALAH
UniProt O96013: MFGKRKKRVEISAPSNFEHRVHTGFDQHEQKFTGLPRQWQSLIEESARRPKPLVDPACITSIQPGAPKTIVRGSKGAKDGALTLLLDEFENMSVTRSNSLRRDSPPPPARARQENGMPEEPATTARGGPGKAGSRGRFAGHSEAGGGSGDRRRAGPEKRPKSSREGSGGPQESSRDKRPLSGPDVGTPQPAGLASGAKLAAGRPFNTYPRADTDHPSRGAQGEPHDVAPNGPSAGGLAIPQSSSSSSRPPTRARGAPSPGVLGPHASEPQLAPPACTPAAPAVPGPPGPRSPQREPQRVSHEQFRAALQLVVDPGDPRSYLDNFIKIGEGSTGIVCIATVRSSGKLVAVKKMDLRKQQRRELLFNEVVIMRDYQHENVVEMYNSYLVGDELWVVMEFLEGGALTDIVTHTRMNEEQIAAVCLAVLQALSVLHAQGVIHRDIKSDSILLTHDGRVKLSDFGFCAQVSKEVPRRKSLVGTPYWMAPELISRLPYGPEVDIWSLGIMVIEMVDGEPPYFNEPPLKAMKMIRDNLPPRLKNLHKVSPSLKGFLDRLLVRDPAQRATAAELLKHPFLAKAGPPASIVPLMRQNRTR
UniProt Q96KB5: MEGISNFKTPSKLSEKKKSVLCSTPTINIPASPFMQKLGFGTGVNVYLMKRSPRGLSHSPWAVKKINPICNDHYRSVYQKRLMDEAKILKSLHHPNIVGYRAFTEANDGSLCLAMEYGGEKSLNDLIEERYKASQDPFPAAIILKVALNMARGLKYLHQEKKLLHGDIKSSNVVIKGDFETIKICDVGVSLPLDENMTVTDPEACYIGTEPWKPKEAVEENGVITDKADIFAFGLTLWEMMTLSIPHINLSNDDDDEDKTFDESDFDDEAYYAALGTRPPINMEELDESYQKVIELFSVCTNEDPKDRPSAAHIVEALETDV
UniProt P09619, whole entry: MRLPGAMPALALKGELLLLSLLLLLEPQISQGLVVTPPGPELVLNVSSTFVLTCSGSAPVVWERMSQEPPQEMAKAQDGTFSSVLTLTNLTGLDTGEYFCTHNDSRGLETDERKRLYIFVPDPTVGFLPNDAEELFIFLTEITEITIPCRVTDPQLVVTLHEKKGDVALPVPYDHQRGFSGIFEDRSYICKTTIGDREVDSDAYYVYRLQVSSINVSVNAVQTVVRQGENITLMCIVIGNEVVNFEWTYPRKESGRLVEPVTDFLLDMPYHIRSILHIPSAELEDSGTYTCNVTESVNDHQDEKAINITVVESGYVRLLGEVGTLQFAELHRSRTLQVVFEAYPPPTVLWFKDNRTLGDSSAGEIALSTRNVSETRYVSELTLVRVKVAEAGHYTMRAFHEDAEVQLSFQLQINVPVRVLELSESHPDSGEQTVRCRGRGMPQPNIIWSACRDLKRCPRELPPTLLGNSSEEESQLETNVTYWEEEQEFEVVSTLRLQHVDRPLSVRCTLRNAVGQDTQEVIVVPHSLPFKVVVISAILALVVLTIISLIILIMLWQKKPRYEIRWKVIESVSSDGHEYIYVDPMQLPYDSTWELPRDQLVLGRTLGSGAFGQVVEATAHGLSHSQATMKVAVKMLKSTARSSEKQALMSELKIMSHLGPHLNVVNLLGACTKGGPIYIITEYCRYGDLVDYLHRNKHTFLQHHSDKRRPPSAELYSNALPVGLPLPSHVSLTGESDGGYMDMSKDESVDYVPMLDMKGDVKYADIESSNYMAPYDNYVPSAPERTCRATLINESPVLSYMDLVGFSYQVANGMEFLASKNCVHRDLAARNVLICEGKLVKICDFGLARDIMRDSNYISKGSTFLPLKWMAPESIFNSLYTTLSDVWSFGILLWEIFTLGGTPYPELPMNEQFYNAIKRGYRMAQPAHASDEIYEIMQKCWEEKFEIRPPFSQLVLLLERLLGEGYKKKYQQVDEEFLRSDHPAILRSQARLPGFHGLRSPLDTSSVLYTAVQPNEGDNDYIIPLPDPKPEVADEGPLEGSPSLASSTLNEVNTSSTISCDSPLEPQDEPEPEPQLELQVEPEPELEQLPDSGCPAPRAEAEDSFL

Measured: kinase-Nluc reporter destabilization hit call

O=c1ccc2ccc(O)c(O)c2o1 [Daphnetin] (10 µM)
inactive: IRAK3 = 0 | JAK1 = 0 | LCK 0 | LIMK1 = 0 | LIMK2 = 0 | LMTK2 = 0 | LYN 0 | MAP2K1 = 0 | MAP2K2 = 0 | MAP4K2 = 0 | MAPK1 = 0 | MAPK4 = 0 | MAPKAPK2 = 0 | MKNK1 = 0 | NTRK2 = 0 | NTRK3 = 0 | PAK4 = 0 | PBK 0 | PDGFRB 0 | PDK1 = 0

C[C@@H]1COCCN1c1cc(C2([S@](C)(=N)=O)CC2)nc(-c2cc[nH]c3nccc2-3)n1 [Ceralasertib] (2.5 µM)
inactive: IRAK3 = 0 | JAK1 = 0 | LCK 0 | LIMK1 = 0 | LIMK2 = 0 | LMTK2 = 0 | LYN 0 | MAP2K1 = 0 | MAP2K2 = 0 | MAP4K2 = 0 | MAPK1 = 0 | MAPK4 = 0 | MAPKAPK2 = 0 | MKNK1 = 0 | NTRK2 = 0 | NTRK3 = 0 | PAK4 = 0 | PBK 0 | PDGFRB 0 | PDK1 = 0

CCCCNC(=N)NC(=N)N [Buformin (hydrochloride)] (2.5 µM)
inactive: IRAK3 = 0 | JAK1 = 0 | LCK 0 | LIMK1 = 0 | LIMK2 = 0 | LMTK2 = 0 | LYN 0 | MAP2K1 = 0 | MAP2K2 = 0 | MAP4K2 = 0 | MAPK1 = 0 | MAPK4 = 0 | MAPKAPK2 = 0 | MKNK1 = 0 | NTRK2 = 0 | NTRK3 = 0 | PAK4 = 0 | PBK 0 | PDGFRB 0 | PDK1 = 0

C[C@@H]1C[C@H]2O[C@@]3(O[C@@H]2C(C)(C)O)[C@H](O)[C@@]2(C)[C@@H]4CC[C@H]5C(C)(C)[C@@H](O[C@@H]6OC[C@H](O)[C@H](O)[C@H]6O)CC[C@@]56C[C@@]46CC[C@]2(C)[C@@H]13 [Cimiracemoside C] (10 µM)
inactive: IRAK3 = 0 | JAK1 = 0 | LCK 0 | LIMK1 = 0 | LIMK2 = 0 | LMTK2 = 0 | LYN 0 | MAP2K1 = 0 | MAP2K2 = 0 | MAP4K2 = 0 | MAPK1 = 0 | MAPK4 = 0 | MAPKAPK2 = 0 | MKNK1 = 0 | NTRK2 = 0 | NTRK3 = 0 | PAK4 = 0 | PBK 0 | PDGFRB 0 | PDK1 = 0

COc1ccc(CNc2nc(N(CCO)CCO)nc3c2ncn3C(C)C)cc1 (2.5 µM)
inactive: IRAK3 = 0 | JAK1 = 0 | LCK 0 | LIMK1 = 0 | LIMK2 = 0 | LMTK2 = 0 | LYN 0 | MAP2K1 = 0 | MAP2K2 = 0 | MAP4K2 = 0 | MAPK1 = 0 | MAPK4 = 0 | MAPKAPK2 = 0 | MKNK1 = 0 | NTRK2 = 0 | NTRK3 = 0 | PAK4 = 0 | PBK 0 | PDGFRB 0 | PDK1 = 0

C[C@H]1Cc2ccccc2N1C(=O)Cc1nc(N2CCOCC2)cc(=O)[nH]1 (2.5 µM)
inactive: IRAK3 = 0 | JAK1 = 0 | LCK 0 | LIMK1 = 0 | LIMK2 = 0 | LMTK2 = 0 | LYN 0 | MAP2K1 = 0 | MAP2K2 = 0 | MAP4K2 = 0 | MAPK1 = 0 | MAPK4 = 0 | MAPKAPK2 = 0 | MKNK1 = 0 | NTRK2 = 0 | NTRK3 = 0 | PAK4 = 0 | PBK 0 | PDGFRB 0 | PDK1 = 0

COc1cc2ncnc(Nc3ccc(NC(=O)c4ccccc4)cc3)c2cc1OC [Aurora kinase inhibitor-2] (2.5 µM)
inactive: IRAK3 = 0 | JAK1 = 0 | LCK 0 | LIMK1 = 0 | LIMK2 = 0 | LMTK2 = 0 | LYN 0 | MAP2K1 = 0 | MAP2K2 = 0 | MAP4K2 = 0 | MAPK1 = 0 | MAPK4 = 0 | MAPKAPK2 = 0 | MKNK1 = 0 | NTRK2 = 0 | NTRK3 = 0 | PAK4 = 0 | PBK 0 | PDGFRB 0 | PDK1 = 0

CCn1nc(C2CCN(C(=O)CCO)CC2)nc1-c1cnc(N)c(-c2nnc(C(C)(C)C)o2)n1 (10 µM)
inactive: IRAK3 = 0 | JAK1 = 0 | LCK 0 | LIMK1 = 0 | LIMK2 = 0 | LMTK2 = 0 | LYN 0 | MAP2K1 = 0 | MAP2K2 = 0 | MAP4K2 = 0 | MAPK1 = 0 | MAPK4 = 0 | MAPKAPK2 = 0 | MKNK1 = 0 | NTRK2 = 0 | NTRK3 = 0 | PAK4 = 0 | PBK 0 | PDGFRB 0 | PDK1 = 0

O=Nc1c(-c2c(O)[nH]c3ccccc23)[nH]c2ccccc12 [Indirubin-3'-monoxime] (2.5 µM)
inactive: IRAK3 = 0 | JAK1 = 0 | LCK 0 | LIMK1 = 0 | LIMK2 = 0 | LMTK2 = 0 | LYN 0 | MAP2K1 = 0 | MAP2K2 = 0 | MAP4K2 = 0 | MAPK1 = 0 | MAPK4 = 0 | MAPKAPK2 = 0 | MKNK1 = 0 | NTRK2 = 0 | NTRK3 = 0 | PAK4 = 0 | PBK 0 | PDGFRB 0 | PDK1 = 0

COc1ccc2c(Oc3ccc(NC(=O)c4c(C)n(CC(C)(C)O)n(-c5ccccc5)c4=O)cc3F)ccnc2c1 (2.5 µM)
inactive: IRAK3 = 0 | JAK1 = 0 | LCK 0 | LIMK1 = 0 | LIMK2 = 0 | LMTK2 = 0 | LYN 0 | MAP2K1 = 0 | MAP2K2 = 0 | MAP4K2 = 0 | MAPK1 = 0 | MAPK4 = 0 | MAPKAPK2 = 0 | MKNK1 = 0 | NTRK2 = 0 | NTRK3 = 0 | PAK4 = 0 | PBK 0 | PDGFRB 0 | PDK1 = 0

COc1cc(N2CCC(N(C)C)CC2)ccc1Nc1ncc(Cl)c(Nc2ccccc2P(C)(C)=O)n1 (2.5 µM)
inactive: IRAK3 = 0 | JAK1 = 0 | LCK 0 | LIMK1 = 0 | LIMK2 = 0 | LMTK2 = 0 | LYN 0 | MAP2K1 = 0 | MAP2K2 = 0 | MAP4K2 = 0 | MAPK1 = 0 | MAPK4 = 0 | MAPKAPK2 = 0 | MKNK1 = 0 | NTRK2 = 0 | NTRK3 = 0 | PAK4 = 0 | PBK 0 | PDGFRB 0 | PDK1 = 0

CC(C)n1cnc2c(Nc3cccc(Cl)c3)nc(NCCO)nc21 (10 µM)
inactive: IRAK3 = 0 | JAK1 = 0 | LCK 0 | LIMK1 = 0 | LIMK2 = 0 | LMTK2 = 0 | LYN 0 | MAP2K1 = 0 | MAP2K2 = 0 | MAP4K2 = 0 | MAPK1 = 0 | MAPK4 = 0 | MAPKAPK2 = 0 | MKNK1 = 0 | NTRK2 = 0 | NTRK3 = 0 | PAK4 = 0 | PBK 0 | PDGFRB 0 | PDK1 = 0

N#C/C(=C\c1ccc2oc(=O)[nH]c2c1)C(=O)c1ccc(O)c(O)c1 (10 µM)
inactive: IRAK3 = 0 | JAK1 = 0 | LCK 0 | LIMK1 = 0 | LIMK2 = 0 | LMTK2 = 0 | LYN 0 | MAP2K1 = 0 | MAP2K2 = 0 | MAP4K2 = 0 | MAPK1 = 0 | MAPK4 = 0 | MAPKAPK2 = 0 | MKNK1 = 0 | NTRK2 = 0 | NTRK3 = 0 | PAK4 = 0 | PBK 0 | PDGFRB 0 | PDK1 = 0

CC(C)c1ccc(CC(=O)N2CCN(c3ccc(C#N)nn3)CC2)cc1 (10 µM)
inactive: IRAK3 = 0 | JAK1 = 0 | LCK 0 | LIMK1 = 0 | LIMK2 = 0 | LMTK2 = 0 | LYN 0 | MAP2K1 = 0 | MAP2K2 = 0 | MAP4K2 = 0 | MAPK1 = 0 | MAPK4 = 0 | MAPKAPK2 = 0 | MKNK1 = 0 | NTRK2 = 0 | NTRK3 = 0 | PAK4 = 0 | PBK 0 | PDGFRB 0 | PDK1 = 0

CC1=C(CC(=O)O)c2cc(F)ccc2/C1=C\c1ccc(C(C)C)cc1 (10 µM)
inactive: IRAK3 = 0 | JAK1 = 0 | LCK 0 | LIMK1 = 0 | LIMK2 = 0 | LMTK2 = 0 | LYN 0 | MAP2K1 = 0 | MAP2K2 = 0 | MAP4K2 = 0 | MAPK1 = 0 | MAPK4 = 0 | MAPKAPK2 = 0 | MKNK1 = 0 | NTRK2 = 0 | NTRK3 = 0 | PAK4 = 0 | PBK 0 | PDGFRB 0 | PDK1 = 0

C[C@@H]1O[C@@H](OC[C@H]2O[C@@H](Oc3cc(O)c4c(c3)O[C@H](c3ccc(O)cc3)CC4=O)[C@H](O)[C@@H](O)[C@@H]2O)[C@H](O)[C@H](O)[C@H]1O [Narirutin] (10 µM)
inactive: IRAK3 = 0 | JAK1 = 0 | LCK 0 | LIMK1 = 0 | LIMK2 = 0 | LMTK2 = 0 | LYN 0 | MAP2K1 = 0 | MAP2K2 = 0 | MAP4K2 = 0 | MAPK1 = 0 | MAPK4 = 0 | MAPKAPK2 = 0 | MKNK1 = 0 | NTRK2 = 0 | NTRK3 = 0 | PAK4 = 0 | PBK 0 | PDGFRB 0 | PDK1 = 0

C=CC(=O)Nc1cccc(Oc2nc(Nc3ccc(N4CCN(C)CC4)cc3)nc3ccoc23)c1 [Poseltinib] (10 µM)
inactive: IRAK3 = 0 | JAK1 = 0 | LCK 0 | LIMK1 = 0 | LIMK2 = 0 | LMTK2 = 0 | LYN 0 | MAP2K1 = 0 | MAP2K2 = 0 | MAP4K2 = 0 | MAPK1 = 0 | MAPK4 = 0 | MAPKAPK2 = 0 | MKNK1 = 0 | NTRK2 = 0 | NTRK3 = 0 | PAK4 = 0 | PBK 0 | PDGFRB 0 | PDK1 = 0

CC(C)N(C)c1nc2cc(C(=O)O)ccc2nc1-c1ccc(F)cc1 (10 µM)
inactive: IRAK3 = 0 | JAK1 = 0 | LCK 0 | LIMK1 = 0 | LIMK2 = 0 | LMTK2 = 0 | LYN 0 | MAP2K1 = 0 | MAP2K2 = 0 | MAP4K2 = 0 | MAPK1 = 0 | MAPK4 = 0 | MAPKAPK2 = 0 | MKNK1 = 0 | NTRK2 = 0 | NTRK3 = 0 | PAK4 = 0 | PBK 0 | PDGFRB 0 | PDK1 = 0

Arranged by formula weight (low to high): some entries from above.
CC1=C(CC(=O)O)c2cc(F)ccc2/C1=C\c1ccc(C(C)C)cc1 (10 µM)
inactive: IRAK3 = 0 | JAK1 = 0 | LCK 0 | LIMK1 = 0 | LIMK2 = 0 | LMTK2 = 0 | LYN 0 | MAP2K1 = 0 | MAP2K2 = 0 | MAP4K2 = 0 | MAPK1 = 0 | MAPK4 = 0 | MAPKAPK2 = 0 | MKNK1 = 0 | NTRK2 = 0 | NTRK3 = 0 | PAK4 = 0 | PBK 0 | PDGFRB 0 | PDK1 = 0

CC(C)N(C)c1nc2cc(C(=O)O)ccc2nc1-c1ccc(F)cc1 (10 µM)
inactive: IRAK3 = 0 | JAK1 = 0 | LCK 0 | LIMK1 = 0 | LIMK2 = 0 | LMTK2 = 0 | LYN 0 | MAP2K1 = 0 | MAP2K2 = 0 | MAP4K2 = 0 | MAPK1 = 0 | MAPK4 = 0 | MAPKAPK2 = 0 | MKNK1 = 0 | NTRK2 = 0 | NTRK3 = 0 | PAK4 = 0 | PBK 0 | PDGFRB 0 | PDK1 = 0

C[C@@H]1O[C@@H](OC[C@H]2O[C@@H](Oc3cc(O)c4c(c3)O[C@H](c3ccc(O)cc3)CC4=O)[C@H](O)[C@@H](O)[C@@H]2O)[C@H](O)[C@H](O)[C@H]1O [Narirutin] (10 µM)
inactive: IRAK3 = 0 | JAK1 = 0 | LCK 0 | LIMK1 = 0 | LIMK2 = 0 | LMTK2 = 0 | LYN 0 | MAP2K1 = 0 | MAP2K2 = 0 | MAP4K2 = 0 | MAPK1 = 0 | MAPK4 = 0 | MAPKAPK2 = 0 | MKNK1 = 0 | NTRK2 = 0 | NTRK3 = 0 | PAK4 = 0 | PBK 0 | PDGFRB 0 | PDK1 = 0

Reference: the supplement of paper PMC12823440, “Inhibitors supercharge kinase turnover through native proteolytic circuits” (Nature, 2025)
